{"source": "patent US9695225B2", "about": "(Eli Lilly and Company, priority 2013, dated 2017)", "test": "general procedure: Fmoc solid-phase peptide synthesis; Fmoc-Rink amide polystyrene resin; DIC/HOBt", "conditions": "whole synthesis, 220 nm, scale 0.125 mmol, TFA salt converted to acetate salt", "note": "Non-standard residues stand in square brackets, D forms with d. No end group written: not given here. Aib = CC(C)(N)C(=O)O"}
{"substance": "HAQGTFLSDYSKYLD[Aib]KKAQEFVEWLLKTGPSSGAPPKSK-NH2", "values": [{"measurement": "final purity (method not given)", "result": ">95", "unit": "%"}]}
